The assay concerns the target T1, His-tagged ERG (UniProt P11308).
T1 sequence: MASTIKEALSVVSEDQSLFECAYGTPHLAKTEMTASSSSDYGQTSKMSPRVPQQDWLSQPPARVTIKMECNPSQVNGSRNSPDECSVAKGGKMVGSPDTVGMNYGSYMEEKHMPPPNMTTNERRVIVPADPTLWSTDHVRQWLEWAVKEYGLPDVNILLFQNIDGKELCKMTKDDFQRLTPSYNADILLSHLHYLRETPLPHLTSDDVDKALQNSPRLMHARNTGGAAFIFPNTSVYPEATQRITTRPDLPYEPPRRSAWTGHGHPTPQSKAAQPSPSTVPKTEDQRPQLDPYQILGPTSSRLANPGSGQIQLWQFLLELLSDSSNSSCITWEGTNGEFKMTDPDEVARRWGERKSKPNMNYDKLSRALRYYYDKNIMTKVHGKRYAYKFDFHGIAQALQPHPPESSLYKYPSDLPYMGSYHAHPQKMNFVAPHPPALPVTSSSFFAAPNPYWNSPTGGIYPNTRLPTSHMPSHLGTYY
The experiment in a line: pull-down; purified His-ERG conjugated to cobalt beads (His-tag isolation dynabeads) as bait; purified FLAG-GST-EWS proteins pulled down; FLAG immunoblot; both purified.

These are yes or no findings as the source states them, for the method shown. Binding can be weak; no strength is given. Tags and fused reporters may be left off the sequences shown.

Turning to “N-terminal degradation product arising from full-length EWS (domain or fragment)”, the binding result was “binds”.

For the origin of these results see paper PMC7485968 (2020).
